US20230312737A1 (REGENTS OF THE UNIVERSITY OF MINNESOTA, published 2023)

Sequences of proteins named here, by UniProt entry; tags and fusion partners are left off. Residues count along the entry.
UniProt O00220, 24-239: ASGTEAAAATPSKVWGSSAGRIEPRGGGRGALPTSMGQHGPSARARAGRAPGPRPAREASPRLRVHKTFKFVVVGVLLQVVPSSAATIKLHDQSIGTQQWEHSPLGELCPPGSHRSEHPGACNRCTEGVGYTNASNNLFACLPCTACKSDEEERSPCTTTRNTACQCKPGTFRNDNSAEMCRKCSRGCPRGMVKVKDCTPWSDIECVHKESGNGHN

Tests used:
Soluble-DR4-Fc = molecular target: T1, Soluble-DR4-Fc (UniProt O00220 24-239); assay: pull-down: ABYDR5-6 (200 nM) on anti-His beads with soluble DR4-Fc, Western blot
T1 construct: Bought from Abcam (ab220558); not shown: Fc part of the bought product; not described

[1] = molecular target: T2, DR5ΔCD-GFP (long isoform of DR5 with the cytoplasmic domain replaced by green fluorescent protein) (human, UniProt O14763 56-240); assay: flow cytometry titration of soluble His-tagged affibody on HEK293 cells stably expressing DR5ΔCD-GFP, 1:1 binding model
T2 construct: Stably expressed on HEK293 cells for flow cytometry, microscopy and FRET; Residues 1-240 are the cDNA limits; no signal peptide cleavage site is stated; also called DR5-GFP; DR5ΔCD-GFP (donor)

[2] = molecular target: death receptor 5 (DR5), endogenous on Jurkat and Huh-7 cells (human, UniProt O14763 56-440); assay: cell-based or functional assay

binding result (Soluble-DR4-Fc): no binding (tested: 100 nM)
Kd [1]: 94 nM
B1: ABYDR5-6 (designed binder)
chain: AEAKYAKEDYLAVVEIVGLPNLTLGQTLAFIFALGDDPSQSSELLSEAKKLNDSQAPKHHHHHH
notes: Soluble protein made in E. coli from a pET vector (NheI/BamHI cloning) with a C-terminal His6 tag; also called soluble ABYDR5-6
IC50, inhibition of TRAIL-induced apoptosis (MTT assay, Jurkat cells, TRAIL 0.1 µg/mL) [2]: 15 nM
IC50, inhibition of TRAIL-induced caspase-8 activation (Jurkat cells) [2]: 160 nM
